Measurements published in PubChem BioAssay AID1671190 (National Center for Advancing Translational Sciences (NCATS), 2021).
Out of some 580,000 compounds screened, about 6,100 (1.1%) were called active. Inconclusive means that the source gave no clear call. Such entries were picked first, then a sample of the others. The call rests on the fitted dose curve; in most records, active means well fitted inhibition curve with a large enough effect; inconclusive means small, poorly fitted or top-dose-only effect, or another doubt; inactive means no such curve, though single readings can be large or run the other way. Potencies beside an inconclusive call are fits to weak or partial responses and may not hold up.

Protein sequences, listed by entry. Tags and fused reporters are not part of them. Lines headed by an entry give the natural chain unless they say otherwise; changes in a name come on top.
UniProt P18054: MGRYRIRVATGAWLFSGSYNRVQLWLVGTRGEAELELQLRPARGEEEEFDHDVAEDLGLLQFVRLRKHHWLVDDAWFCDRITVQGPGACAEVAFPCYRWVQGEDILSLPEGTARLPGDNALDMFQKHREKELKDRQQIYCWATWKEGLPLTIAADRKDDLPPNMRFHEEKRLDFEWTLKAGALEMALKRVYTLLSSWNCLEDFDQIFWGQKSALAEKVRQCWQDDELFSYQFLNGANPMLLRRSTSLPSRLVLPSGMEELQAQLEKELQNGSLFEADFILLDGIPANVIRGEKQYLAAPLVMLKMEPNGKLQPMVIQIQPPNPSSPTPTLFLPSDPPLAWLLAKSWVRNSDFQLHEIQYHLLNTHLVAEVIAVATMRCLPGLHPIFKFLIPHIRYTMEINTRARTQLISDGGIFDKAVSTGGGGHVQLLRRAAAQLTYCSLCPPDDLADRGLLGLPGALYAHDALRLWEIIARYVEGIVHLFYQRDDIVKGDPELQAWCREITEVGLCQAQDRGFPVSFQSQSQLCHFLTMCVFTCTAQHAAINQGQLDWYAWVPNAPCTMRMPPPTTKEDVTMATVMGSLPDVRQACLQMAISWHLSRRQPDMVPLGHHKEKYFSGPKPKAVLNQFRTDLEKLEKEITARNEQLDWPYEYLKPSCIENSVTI

target: Polyunsaturated fatty acid lipoxygenase ALOX12 (Homo sapiens) (UniProt P18054); test: Primary qHTS assay for inhibitors of human arachidonate 12S-lipoxygenase (ALOX12): Round 2; settings: purified 12hLO, xylenol orange hydroperoxide absorbance; activity change, negative = inhibition: at 108 µM (top of the series) unless noted
Summary of the method: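 Hydroperoxide product was detected by ferrous iron/xylenol orange as the 573 to 405 nm absorbance ratio. Arachidonic acid at 40 uM (final) was turned over for 30 min at room temperature by 150 nM human 12hLO, pH 7.0 Hepes buffer, after 15 min compound preincubation.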
On the % scale 0 is the no-effect control and ±100 the full control effect; potency means the concentration at half of the fitted maximal effect.

SMILES	activity change, negative = inhibition	Potency
O=[N+]([O-])c1ccc(Nc2ccc(F)cc2)cc1	inactive: 0%	–
NC(=O)c1nn(CC(=O)Nc2cccc3cccnc23)c(=O)c2ccccc12	inactive: 6.61%	–
Cc1c(NC(=O)COC(=O)c2cc3c4ccccc4n(C)c3s2)c(=O)n(-c2ccccc2)n1C	–	inconclusive: 44.7 µM [inhibitor, partial curve, poor fit]
COCCn1c(-n2nc(C)cc2C)nc2c1c(=O)n(Cc1cc(C)ccc1C)c(=O)n2C	–	inconclusive: 112 µM [inhibitor, single point]
COC(=O)c1cc(C)nc(Sc2ccccc2N)n1	–	inconclusive: 15.8 µM [inhibitor, partial curve, poor fit]
CC(C)[C@H](Nc1ccc(S(=O)(=O)N2CCOCC2)cc1[N+](=O)[O-])C(=O)OCC(N)=O	–	inconclusive: 25.1 µM [inhibitor, partial curve, poor fit]
CN(C)CCNC(=O)c1ccc2c(=O)n(Cc3ccc(Cl)cc3)c(=S)[nH]c2c1	–	inconclusive: 44.7 µM [inhibitor, partial curve, poor fit]
CC(=O)c1ccc(NS(=O)(=O)c2ccc3[nH]c(=O)[nH]c3c2)cc1	–	inconclusive: 100 µM [inhibitor, partial curve, poor fit]
Oc1ccc(C[C@H]2CN([C@@H](Cc3ccc(O)cc3)CN3CCC[C@@H]3CN3C(=S)NC[C@@H]3Cc3ccccc3)C(=S)N2CC2CCCCCC2)cc1	–	inconclusive: 44.7 µM [inhibitor, partial curve, poor fit]
CC(C)(C)c1ccc(CNCCN2CCCC2)cc1	–	inconclusive: 35.5 µM [inhibitor, partial curve, poor fit]
Cc1ccc2oc(=O)cc(CN3CCN(Cc4ccccc4)CC3)c2c1	–	inconclusive: 35.5 µM [inhibitor, partial curve, poor fit]
CN(C)c1ccc(-c2cncnc2Nc2ccccc2)cc1	–	inconclusive: 44.7 µM [inhibitor, partial curve, poor fit]
COc1ccccc1C(=O)Nc1ccc(S(=O)(=O)Nc2nc(C)cc(C)n2)cc1	inactive: -9.35%	–
Cc1cccc2cc3c(N)c(C(=O)N4CCc5ccccc54)sc3nc12	–	inconclusive: 56.2 µM [inhibitor, partial curve, poor fit]
Cc1ccc(CNC(=O)c2sccc2C)cn1	–	inconclusive: 35.5 µM [inhibitor, single point]
COc1ccc(OC(=O)c2ccc3nsnc3c2)cc1	inactive: -15.2%	–
CN(Cc1ccc(-c2ccc(Cl)cc2)o1)C(=O)CNC(=O)c1ccc(F)cc1	inactive: -18.8%	–
O=C(COC(=O)c1ccc([N+](=O)[O-])s1)Nc1ncc(C(F)(F)F)cc1Cl	–	inconclusive: 50.1 µM [inhibitor, partial curve, poor fit]
O=C(O)c1ccc(-c2ccc(CNC3CCCCC3)o2)cc1	–	inconclusive: 100 µM [inhibitor, single point]
NCCCC[C@H]1CNC(=O)C(=O)N1CCCCC1CCCCC1	–	inconclusive: 112 µM [inhibitor, single point]

Compounds listed so far containing an aryl methoxy group:
SMILES	activity change, negative = inhibition	Potency
COc1ccccc1C(=O)Nc1ccc(S(=O)(=O)Nc2nc(C)cc(C)n2)cc1	inactive: -9.35%	–
COc1ccc(OC(=O)c2ccc3nsnc3c2)cc1	inactive: -15.2%	–

(list continues)

SMILES	activity change, negative = inhibition	Potency
Cc1cc(C(=O)Nc2cccc3c2O[C@H](CN(C)CC2CC2)[C@@H](C)CN([C@H](C)CO)C3=O)n(C)n1	inactive: -2.88%	–
COc1ccc(NC(=O)C2CC2)cc1-n1cnnn1	–	inconclusive: 39.8 µM [inhibitor, single point]
O=C(O)c1ccccc1CSc1nc2ccccc2s1	–	inconclusive: 79.4 µM [inhibitor, single point]
CC1(C(=O)NS(=O)(=O)c2ccccc2Cl)CCN1C(=O)CC1CC1 (stereo not given)	–	inconclusive: 7.08 µM [inhibitor, full curve]
OCC1OC(n2cnc3c(NCc4ccco4)ncnc32)C(O)C1O (stereo not given)	inactive: -8.56%	–
CC(C)(C)c1ccc(C(=O)Nc2ccc(NC(=O)c3ccco3)cc2)cc1	inactive: 12.5%	–
O=C1[C@H](c2ccccc2)[C@@H](c2ccncc2)N1c1ccncc1	–	inconclusive: 39.8 µM [inhibitor, single point]
Cc1c(COc2ccc3ccccc3c2)nnn1CC(=O)NS(=O)(=O)c1ccccc1C(F)(F)F	–	inconclusive: 3.16 µM [inhibitor, full curve, poor fit]
FC(F)(F)c1cc(NC2CCCCC2)ccn1	–	inconclusive: 39.8 µM [inhibitor, single point]
CCN(CC)c1ccc(NC(=O)c2ccc(Cl)nc2)cc1	–	inconclusive: 17.8 µM [inhibitor, single point]
CC1CCCC(C)N1c1nnc(N)s1 (stereo not given)	–	inconclusive: 50.1 µM [inhibitor, partial curve, poor fit]
CCC1CCC(N(C(=O)Cc2nc(-c3cccs3)oc2C)C2CC2)CC1 (stereo not given)	–	inconclusive: 50.1 µM [inhibitor, partial curve, poor fit]
CC1=C(C(=O)N2CCCCCC2)CC(CC(=O)NCc2cccs2)C(=O)N1CCC1=CCCCC1 (stereo not given)	–	inconclusive: 141 µM [inhibitor, single point]
Cc1cccc(/C=C/c2ccc3ccccc3n2)c1	–	inconclusive: 0.316 µM [inhibitor, full curve, poor fit]
O=[N+]([O-])c1c(Nc2cccc(O)c2)cc(Cl)c2nonc12	–	inconclusive: 39.8 µM [inhibitor, partial curve, poor fit]
Cc1cc(C)c2cc(CN(Cc3ccco3)C(=S)NCC3CCCO3)c(=O)[nH]c2c1 (stereo not given)	–	inconclusive: 44.7 µM [inhibitor, partial curve, poor fit]
O=C(c1ccco1)N1CCN(C(=O)c2nnn3c2COC(c2ccc(Cl)cc2)C3)CC1 (stereo not given)	inactive: -0.5%	–
COc1cccc(OCC(O)CN2CCN(CCN3C(=O)c4cccc5cccc(c45)C3=O)CC2)c1 (stereo not given)	–	inconclusive: 70.8 µM [inhibitor, partial curve, poor fit]
Fc1ccccc1-c1n[nH]c(=S)n1C1CC1	–	inconclusive: 44.7 µM [inhibitor, partial curve, poor fit]
CC(=O)c1ccc(Nc2cc(C)nc3ncnn23)cc1	–	inconclusive: 1 µM [inhibitor, full curve, poor fit]
